Reference: patent US20200199538A1, “DERIVATION OF LIVER ORGANOIDS FROM HUMAN PLURIPOTENT STEM CELLS” (AGENCY FOR SCIENCE, TECHNOLOGY AND RESEARCH (A*STAR), priority 2015, published 2020)
At least one structure is not confirmed: it was looked up by name or label, or the drawing left a doubt.

Test system: LDLR deficient liver organoids
Experiment: Cholesterol secretion by LDLR deficient liver organoids (Amplex Red Cholesterol Assay Kit)
Assay type: cell-based, human
Conditions: FIG. 37

In the case of CC[C@H](C)C(=O)O[C@H]1C[C@H](O)C=C2C=C[C@H](C)[C@H](CC[C@@H](O)C[C@@H](O)CC(=O)O)[C@H]21 [Pravastatin], the cholesterol secretion level (10 nM pravastatin, LDLR KO organoids from LDLR KO MESP, compared with wild type LDLR+ organoids) was “lowered cholesterol secretion level to similar levels of wild type LDLR+ organoids” and the “level of cholesterol secreted” value (increasing concentrations of statin added to media, LDLR deficient organoids, media collected after 24 hours) was “suppressed by increasing concentrations of statin treatment”.
